Consider two molecules from PMC6704128.

Chains of the proteins cited; added tags and fusions are not shown. Residues count along the entry.
UniProt P08514, residues 987-1039: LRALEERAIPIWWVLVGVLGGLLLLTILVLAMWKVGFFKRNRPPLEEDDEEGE

No constants are given. Whether binding was seen depends on the method and setting. For part of these data: In cells and extracts the contact can be indirect. Some entries that bind do so weakly or less than the wild type. Where a sequence is shown, tags or fusion partners need not be part of it.

Experiment [1] addresses T1, full-length Canis familiaris ICln (cICln), N-terminal His6-tagged (Canis familiaris) (UniProt P35521).
T1 sequence: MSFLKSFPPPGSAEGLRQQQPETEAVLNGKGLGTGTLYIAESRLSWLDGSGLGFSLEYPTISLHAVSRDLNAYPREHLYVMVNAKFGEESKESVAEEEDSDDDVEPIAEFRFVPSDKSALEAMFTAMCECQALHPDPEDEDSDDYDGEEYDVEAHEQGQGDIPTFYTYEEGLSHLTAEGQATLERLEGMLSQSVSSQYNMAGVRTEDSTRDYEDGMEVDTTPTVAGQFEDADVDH
Briefly: NMR titration; 1H-15N HSQC of 15N-labelled ICln (0.8 mM) without and with the integrin peptide (equimolar amount for TcICln); 50 mM K2HPO4, pH 6.6, 90% H2O/10% D2O, 25 °C, 800 MHz; both purified.

Experiment [2] concerns the target αIIbs-YFP (transmembrane and intracellular portion, amino acids 987-1039, of the human integrin αIIb chain, YFP at the C-terminus) (human) (UniProt P08514). The experiment is described as follows: FRET or BRET; acceptor photobleaching; NIH-3T3 fibroblasts fixed in 3% paraformaldehyde, in phosphate buffered saline; data not shown.
The target is the same in experiment [3]. Briefly: FRET or BRET; sensitized emission N-FRET; living NIH-3T3 fibroblasts in isotonic solution and after 10, 15 and 20 min of hypotonic solution; three plasma membrane ROIs of each cell.

B1: integrin peptide (1018)…(1039), the entire C-terminus of integrin αIIb (peptide)
peptide: MWKVGFFKRNRPPLEEDDEEGE
For the molecule B1, the binding result in experiment [1] is given as “binds weakly”.

B2: CFP-ICln (Canis familiaris ICln, wild type, CFP fused to the N-terminus) (protein, UniProt P35521 1-235)
chain: MSFLKSFPPPGSAEGLRQQQPETEAVLNGKGLGTGTLYIAESRLSWLDGSGLGFSLEYPTISLHAVSRDLNAYPREHLYVMVNAKFGEESKESVAEEEDSDDDVEPIAEFRFVPSDKSALEAMFTAMCECQALHPDPEDEDSDDYDGEEYDVEAHEQGQGDIPTFYTYEEGLSHLTAEGQATLERLEGMLSQSVSSQYNMAGVRTEDSTRDYEDGMEVDTTPTVAGQFEDADVDH
For B2, the binding entry in experiment [2] and in experiment [3] was “binds” each time.
